Results are given in words; binding and its absence hold for the method and conditions named. In cells and extracts the contact can be indirect. Some results given as binding are weak or reduced against the parent protein; the word gives no strength.
Target: T1, SPECC1L (wildtype) (mouse (endogenous in embryonic tissue)) (UniProt Q2KN98)
T1 sequence: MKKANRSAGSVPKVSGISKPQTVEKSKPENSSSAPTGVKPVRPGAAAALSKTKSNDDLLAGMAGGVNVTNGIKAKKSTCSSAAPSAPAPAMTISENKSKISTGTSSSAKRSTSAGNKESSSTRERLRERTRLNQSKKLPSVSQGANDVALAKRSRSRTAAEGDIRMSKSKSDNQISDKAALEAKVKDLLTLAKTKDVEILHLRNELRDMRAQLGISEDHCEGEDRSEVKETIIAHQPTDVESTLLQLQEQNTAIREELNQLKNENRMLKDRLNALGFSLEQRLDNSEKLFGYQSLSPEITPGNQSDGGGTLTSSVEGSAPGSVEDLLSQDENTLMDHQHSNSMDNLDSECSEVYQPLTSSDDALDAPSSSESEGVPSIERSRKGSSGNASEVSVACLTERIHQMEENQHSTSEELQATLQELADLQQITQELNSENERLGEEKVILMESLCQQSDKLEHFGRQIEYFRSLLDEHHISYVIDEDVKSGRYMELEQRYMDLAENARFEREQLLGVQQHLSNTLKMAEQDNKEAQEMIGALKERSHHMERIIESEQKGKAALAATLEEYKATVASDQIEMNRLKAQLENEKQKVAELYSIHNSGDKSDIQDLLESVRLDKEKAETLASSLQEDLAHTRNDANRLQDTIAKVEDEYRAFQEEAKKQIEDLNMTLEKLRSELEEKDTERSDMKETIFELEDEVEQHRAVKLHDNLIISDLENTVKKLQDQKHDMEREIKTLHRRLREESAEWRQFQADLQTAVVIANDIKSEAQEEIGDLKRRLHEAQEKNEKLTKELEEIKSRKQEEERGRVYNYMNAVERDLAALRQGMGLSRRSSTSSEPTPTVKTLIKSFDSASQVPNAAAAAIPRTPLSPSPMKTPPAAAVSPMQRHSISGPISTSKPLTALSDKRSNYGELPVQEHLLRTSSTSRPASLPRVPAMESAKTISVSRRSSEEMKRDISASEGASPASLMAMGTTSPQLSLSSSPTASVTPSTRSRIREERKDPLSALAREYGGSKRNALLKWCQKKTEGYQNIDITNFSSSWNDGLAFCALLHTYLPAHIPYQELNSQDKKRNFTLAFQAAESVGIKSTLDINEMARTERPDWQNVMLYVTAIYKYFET
Experiment: co-IP

The chains behind the UniProt entries cited, without tags or fusion partners.
UniProt Q61879: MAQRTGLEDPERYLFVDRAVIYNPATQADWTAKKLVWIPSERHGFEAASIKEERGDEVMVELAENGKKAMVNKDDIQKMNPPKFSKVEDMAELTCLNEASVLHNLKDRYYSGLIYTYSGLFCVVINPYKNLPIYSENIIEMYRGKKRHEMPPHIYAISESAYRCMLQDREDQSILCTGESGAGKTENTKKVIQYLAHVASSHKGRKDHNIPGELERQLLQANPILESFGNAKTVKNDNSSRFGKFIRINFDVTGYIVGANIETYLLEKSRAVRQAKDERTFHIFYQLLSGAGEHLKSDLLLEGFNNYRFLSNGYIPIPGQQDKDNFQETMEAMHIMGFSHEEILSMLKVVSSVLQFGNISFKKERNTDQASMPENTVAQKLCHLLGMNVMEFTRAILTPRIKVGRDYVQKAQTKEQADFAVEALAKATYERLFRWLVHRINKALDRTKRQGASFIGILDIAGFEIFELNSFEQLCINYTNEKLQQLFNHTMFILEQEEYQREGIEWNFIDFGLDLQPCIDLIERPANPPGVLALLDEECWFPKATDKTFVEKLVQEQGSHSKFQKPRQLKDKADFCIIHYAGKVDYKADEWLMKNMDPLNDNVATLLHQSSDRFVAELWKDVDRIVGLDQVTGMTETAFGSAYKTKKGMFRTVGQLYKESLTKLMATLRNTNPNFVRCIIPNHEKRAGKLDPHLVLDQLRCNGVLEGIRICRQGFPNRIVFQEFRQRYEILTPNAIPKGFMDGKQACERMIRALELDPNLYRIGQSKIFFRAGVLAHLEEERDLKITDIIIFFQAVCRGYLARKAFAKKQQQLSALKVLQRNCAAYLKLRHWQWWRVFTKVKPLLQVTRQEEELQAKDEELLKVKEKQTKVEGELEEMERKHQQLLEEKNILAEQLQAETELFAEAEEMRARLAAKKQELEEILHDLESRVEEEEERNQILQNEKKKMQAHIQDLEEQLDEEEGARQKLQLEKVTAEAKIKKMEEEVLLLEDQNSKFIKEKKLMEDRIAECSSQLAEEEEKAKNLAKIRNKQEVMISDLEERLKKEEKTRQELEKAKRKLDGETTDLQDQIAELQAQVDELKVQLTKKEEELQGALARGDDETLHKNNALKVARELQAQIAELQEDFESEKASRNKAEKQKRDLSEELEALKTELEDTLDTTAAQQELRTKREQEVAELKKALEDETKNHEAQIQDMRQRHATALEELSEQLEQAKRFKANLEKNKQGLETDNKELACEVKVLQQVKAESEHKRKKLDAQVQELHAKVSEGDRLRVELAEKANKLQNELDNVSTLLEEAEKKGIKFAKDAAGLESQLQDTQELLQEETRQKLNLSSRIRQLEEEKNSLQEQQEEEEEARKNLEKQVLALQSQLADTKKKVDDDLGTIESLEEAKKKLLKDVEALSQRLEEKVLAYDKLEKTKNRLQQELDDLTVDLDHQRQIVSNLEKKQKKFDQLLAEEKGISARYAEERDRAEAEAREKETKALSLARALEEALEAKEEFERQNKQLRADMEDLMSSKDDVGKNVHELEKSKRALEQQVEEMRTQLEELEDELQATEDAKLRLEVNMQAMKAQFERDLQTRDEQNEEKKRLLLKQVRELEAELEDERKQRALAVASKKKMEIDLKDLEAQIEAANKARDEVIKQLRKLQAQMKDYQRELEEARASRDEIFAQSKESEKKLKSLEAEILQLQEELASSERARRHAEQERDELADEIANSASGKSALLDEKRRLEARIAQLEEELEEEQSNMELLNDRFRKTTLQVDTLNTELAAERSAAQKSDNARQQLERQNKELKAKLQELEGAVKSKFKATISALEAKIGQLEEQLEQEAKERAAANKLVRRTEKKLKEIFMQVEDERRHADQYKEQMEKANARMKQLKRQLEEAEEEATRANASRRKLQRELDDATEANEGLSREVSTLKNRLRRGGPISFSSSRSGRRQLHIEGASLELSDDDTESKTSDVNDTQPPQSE

- binding: binds
Substance: non-muscle myosin IIB (NM-IIB) component MYH10 (from UniProt Q61879 1-1976)
